Measured values as given in the supplement of paper PMC7661543.
Differences between knockout arms are mostly noise.

Tested on: SKBR3
Assay: relative cell number vs DMSO control (72 h) (% of DMSO); higher = less growth inhibition (more cells)
Method: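 QMAP-Seq: a pool of 5 breast cancer cell lines (ZR-75-1, SKBR3, HCC-38, MDA-MB-231, BT-20), each carrying 12 doxycycline-inducible Cas9 sgRNA perturbations (11 knockouts plus non-targeting sgNT), was treated with compounds for 72 h at four 10-fold doses (10 nM-10 uM or 1 nM-1 uM range). Barcodes were amplified and sequenced, and cell number was interpolated from 293T spike-in standard curves. The result is expressed as % of the median of DMSO wells. Two biological replicates.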

CC(C)c1cc(-c2n[nH]c(=O)n2-c2ccc3c(ccn3C)c2)c(O)cc1O [Ganetespib]
Conditions	relative cell number
sgRNA knockout: sgATF3, 1 nM	84.9
sgRNA knockout: sgATF3, 10 nM	115
sgRNA knockout: sgATF3, 100 nM	32.3
sgRNA knockout: sgATF3, 1000 nM	35.2
sgRNA knockout: sgATF4, 1 nM	91.9
sgRNA knockout: sgATF4, 10 nM	96.5
sgRNA knockout: sgATF4, 100 nM	29.22
sgRNA knockout: sgATF4, 1000 nM	30
sgRNA knockout: sgATF6, 1 nM	92.7
sgRNA knockout: sgATF6, 10 nM	89
sgRNA knockout: sgATF6, 100 nM	30.3
sgRNA knockout: sgATF6, 1000 nM	30.1
sgRNA knockout: sgATG7, 1 nM	89.4
sgRNA knockout: sgATG7, 10 nM	88.5
sgRNA knockout: sgATG7, 100 nM	26.6
sgRNA knockout: sgATG7, 1000 nM	36.4
sgRNA knockout: sgERN1, 1 nM	79.2
sgRNA knockout: sgERN1, 10 nM	116
sgRNA knockout: sgERN1, 100 nM	29.9
sgRNA knockout: sgERN1, 1000 nM	29.5
sgRNA knockout: sgHSF1, 1 nM	95.5
sgRNA knockout: sgHSF1, 10 nM	105
sgRNA knockout: sgHSF1, 100 nM	25.854
sgRNA knockout: sgHSF1, 1000 nM	34.7
sgRNA knockout: sgHSF2, 1 nM	83.6
sgRNA knockout: sgHSF2, 10 nM	72.6
sgRNA knockout: sgHSF2, 100 nM	27.1
sgRNA knockout: sgHSF2, 1000 nM	36.2
sgRNA knockout: sgKEAP1, 1 nM	85.9
sgRNA knockout: sgKEAP1, 10 nM	80.6
sgRNA knockout: sgKEAP1, 100 nM	30.5
sgRNA knockout: sgKEAP1, 1000 nM	33.9
sgRNA knockout: sgNFE2L2, 1 nM	101
sgRNA knockout: sgNFE2L2, 10 nM	91.7
sgRNA knockout: sgNFE2L2, 100 nM	32.5
sgRNA knockout: sgNFE2L2, 1000 nM	38.5
sgRNA knockout: sgSLC35F2, 1 nM	96.46
sgRNA knockout: sgSLC35F2, 10 nM	85.8
sgRNA knockout: sgSLC35F2, 100 nM	33.6
sgRNA knockout: sgSLC35F2, 1000 nM	38.6
sgRNA knockout: sgXBP1, 1 nM	107
sgRNA knockout: sgXBP1, 10 nM	78.3
sgRNA knockout: sgXBP1, 100 nM	28.4
sgRNA knockout: sgXBP1, 1000 nM	32.4

O=C(Cc1ccc(-c2ccc(OCCN3CCOCC3)cc2)cn1)NCc1ccccc1 [KX2391]
Conditions	relative cell number
sgRNA knockout: sgATF3, 10 nM	117
sgRNA knockout: sgATF3, 100 nM	17.12
sgRNA knockout: sgATF3, 1000 nM	12.2
sgRNA knockout: sgATF3, 10000 nM	13.1
sgRNA knockout: sgATF4, 10 nM	132
sgRNA knockout: sgATF4, 100 nM	11.6
sgRNA knockout: sgATF4, 1000 nM	11.4
sgRNA knockout: sgATF4, 10000 nM	11.6
sgRNA knockout: sgATF6, 10 nM	118
sgRNA knockout: sgATF6, 100 nM	14.3
sgRNA knockout: sgATF6, 1000 nM	10.9
sgRNA knockout: sgATF6, 10000 nM	10.9
sgRNA knockout: sgATG7, 10 nM	104
sgRNA knockout: sgATG7, 100 nM	16.6
sgRNA knockout: sgATG7, 1000 nM	9.27
sgRNA knockout: sgATG7, 10000 nM	12.9
sgRNA knockout: sgERN1, 10 nM	133
sgRNA knockout: sgERN1, 100 nM	13.4
sgRNA knockout: sgERN1, 1000 nM	8.22
sgRNA knockout: sgERN1, 10000 nM	13.7
sgRNA knockout: sgHSF1, 10 nM	123
sgRNA knockout: sgHSF1, 100 nM	14.3
sgRNA knockout: sgHSF1, 1000 nM	5.7
sgRNA knockout: sgHSF1, 10000 nM	9.37
sgRNA knockout: sgHSF2, 10 nM	115
sgRNA knockout: sgHSF2, 100 nM	15.5
sgRNA knockout: sgHSF2, 1000 nM	9.01
sgRNA knockout: sgHSF2, 10000 nM	15.7
sgRNA knockout: sgKEAP1, 10 nM	128
sgRNA knockout: sgKEAP1, 100 nM	11.2
sgRNA knockout: sgKEAP1, 1000 nM	10.2
sgRNA knockout: sgKEAP1, 10000 nM	7.9
sgRNA knockout: sgNFE2L2, 10 nM	127
sgRNA knockout: sgNFE2L2, 100 nM	16.9
sgRNA knockout: sgNFE2L2, 1000 nM	10.3
sgRNA knockout: sgNFE2L2, 10000 nM	14
sgRNA knockout: sgSLC35F2, 10 nM	137.4
sgRNA knockout: sgSLC35F2, 100 nM	12.2
sgRNA knockout: sgSLC35F2, 1000 nM	8.29
sgRNA knockout: sgSLC35F2, 10000 nM	16.1
sgRNA knockout: sgXBP1, 10 nM	109
sgRNA knockout: sgXBP1, 100 nM	18.4
sgRNA knockout: sgXBP1, 1000 nM	8.6
sgRNA knockout: sgXBP1, 10000 nM	8.86
